Assay results as given in PubChem BioAssay AID200 (DTP/NCI, 2004).
The list does not hold the whole screen: it is rich in T/C values a quarter to a half above the control, in often repeated tests (any T/C) and in doses without a T/C. Further doses and runs are listed elsewhere. T/C is the treated group as % of the vehicle group. Some entries give survivors of the animals treated and no T/C: the source holds a T/C of zero for them, seemingly a mark for toxic or unscored doses. Some doses without a T/C left all or most animals alive at the check, yet need not have been tolerated: survival well below the control is almost never listed, so the zero probably covers shortened survival too. Counts of survivors are from the toxicity check (mostly the fifth day) where no day follows; animals may have died later. Schedules are NCI's codes, taken here to give the interval after Q, in days (D) or hours (H), and the number of doses after X. Some entries hold several experiments; their values stand side by side, smallest first. For survival time, this PubChem deposit counts one and a half times the control or more as active, and values a quarter to a half above the control carry no call in these data; other NCI protocols may use other cut-offs. Some T/C values are followed by the survivors on the day toxicity was checked, most often the fifth; without a count, all were alive then.

Test system: B6C3F1 mice, B16 melanoma ip, median survival T/C
Assay: NCI In Vivo Anticancer Drug Screen. Data for tumor model B16 Melanoma (intraperitoneal) in B6C3F1 mice
Conditions: T/C endpoint: median survival time, higher T/C = longer survival
Method in brief: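 Tumor-bearing mice received test compound; a separate group got vehicle only. Survival was then compared, with results reported as treated over control.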

[1] = dose: 12.5 mg/kg/injection, schedule: Q01DX009 (ip), vehicle: saline with Tween-80
[2] = dose: 100.0 mg/kg/injection, schedule: Q01DX009 (ip), vehicle: saline with Tween-80
[3] = dose: 200.0 mg/kg/injection, schedule: Q01DX009 (ip), vehicle: saline with Tween-80
[4] = dose: 400.0 mg/kg/injection, schedule: Q01DX009 (ip), vehicle: saline with Tween-80
[5] = dose: 0.5 mg/kg/injection, schedule: Q01DX009 (ip), vehicle: saline + alcohol
[6] = dose: 1.0 mg/kg/injection, schedule: Q01DX009 (ip), vehicle: saline + alcohol
[7] = dose: 2.0 mg/kg/injection, schedule: Q01DX009 (ip), vehicle: saline + alcohol
[8] = dose: 4.0 mg/kg/injection, schedule: Q01DX009 (ip), vehicle: saline + alcohol
[9] = dose: 6.25 mg/kg/injection, schedule: Q01DX009 (ip), vehicle: Klucel (hydroxypropylcellulose) (HPC)
[10] = dose: 25.0 mg/kg/injection, schedule: Q01DX009 (ip), vehicle: Klucel (hydroxypropylcellulose) (HPC)
[11] = dose: 100.0 mg/kg/injection, schedule: Q01DX009 (ip), vehicle: Klucel (hydroxypropylcellulose) (HPC)
[12] = dose: 200.0 mg/kg/injection, schedule: Q01DX009 (ip), vehicle: saline

SMILES: CNc1cccnc1/C=N/NC(N)=S
- T/C [1]: 139 % of control
- T/C (dose: 25.0 mg/kg/injection, schedule: Q01DX009 (ip), vehicle: saline with Tween-80): 144 and 146 % of control
- T/C (dose: 50.0 mg/kg/injection, schedule: Q01DX009 (ip), vehicle: saline with Tween-80): 149 % of control
- survivor count [2]: 10 of 10
- survivor count [3]: 8 of 10 and 9 of 10
- survivor count [4]: 8 of 10

SMILES: COc1cc2c3c(cccc3c1)C(=O)N(CCN(C)C)C2=O
- T/C (dose: 80.0 mg/kg/injection, schedule: Q01DX009 (ip), vehicle: saline with Tween-80): 126 and 132 % of control
- survivor count (dose: 160.0 mg/kg/injection, schedule: Q01DX009 (ip), vehicle: saline with Tween-80): 2 of 10, 9 of 10, 10 of 10

SMILES: C=C1C(O)C2(O)OCC34C(CC5C(C)=CC(=O)C(O)C5(C)C23)OC(=O)C(OC(=O)C(C)(O)CC)C14 (configuration not stated)
- T/C [5]: 126 % of control
- T/C [6]: 128 % of control
- T/C [7]: 128 [9 of 10 alive] and 149 % of control
- survivor count [8]: 0 of 10

SMILES: CCOC(=O)Nc1cc2c(c(N)n1)N=C(c1ccccc1)CO2
- T/C (dose: 172.8 mg/kg/injection, schedule: Q01DX009 (ip), vehicle: saline with Tween-80): 129 % of control
- T/C [3]: 142 and 145 % of control
- T/C (dose: 283.0 mg/kg/injection, schedule: Q01DX009 (ip), vehicle: saline with Tween-80): 129 % of control

SMILES: CCN(CC)CC(=O)O[C@]1(CC)C(=O)OCc2c1cc1n(c2=O)Cc2cc3ccccc3nc2-1
- T/C (dose: 2.8 mg/kg/injection, schedule: Q01DX009 (ip), vehicle: water): 140 % of control
- T/C (dose: 2.88 mg/kg/injection, schedule: Q01DX009 (ip), vehicle: water): 136 % of control [9 of 10 alive]
- survivor count (dose: 8.0 mg/kg/injection, schedule: Q01DX009 (ip), vehicle: water): 10 of 10
- survivor count (dose: 13.33 mg/kg/injection, schedule: Q01DX009 (ip), vehicle: water): 6 of 10 and 10 of 10
- survivor count (dose: 16.0 mg/kg/injection, schedule: Q01DX009 (ip), vehicle: water): 10 of 10
- survivor count (dose: 22.22 mg/kg/injection, schedule: Q01DX009 (ip), vehicle: water): 3 of 10 and 10 of 10

SMILES: COc1ccc(C(=O)C(CN(C)C)CN(C)C)cc1
- survivor count (dose: 50.0 mg/kg/injection, schedule: Q01DX009 (ip), vehicle: saline): 0 of 10

SMILES: OC1(CSc2ccccc2)CCCCC1
- survivor count [3]: 7 of 10
- survivor count [4]: 4 of 10

SMILES: Cc1ccc(C(=O)NC2C(=O)NC(C(C)C)C(=O)N3CCCC3C(=O)N(C)CC(=O)N(C)C(C(C)C)C(=O)OC2C)c2c1Oc1c(c(C(=O)NC3C(=O)NC(C(C)C)C(=O)N4CCCC4C(=O)N(C)CC(=O)N(C)C(C(C)C)C(=O)OC3C)c3nc(-c4ccccc4)c(=O)oc3c1C)N2 (configuration not stated)
- T/C (dose: 0.12 mg/kg/injection, schedule: Q01DX009 (ip), vehicle: water): 125 % of control
- T/C (dose: 0.25 mg/kg/injection, schedule: Q01DX009 (ip), vehicle: water): 144 % of control
- survivor count (dose: 1.0 mg/kg/injection, schedule: Q01DX009 (ip), vehicle: water): 10 of 10
- survivor count (dose: 2.0 mg/kg/injection, schedule: Q01DX009 (ip), vehicle: water): 0 of 10

SMILES: O=[N+]([O-])c1ccc(-n2[nH]nnc2=S)cc1
- survivor count [4]: 6 of 10

SMILES: CNC(=O)Oc1ccc(S(=O)(=O)c2ccc(OC(=O)NC)cc2)cc1
- survivor count [1]: 10 of 10
- survivor count [2]: 10 of 10
- survivor count [3]: 9 of 10

SMILES: O=C1C2CC=CCC2C(=O)N1SC(Cl)(Cl)Cl (configuration not stated)
- survivor count (dose: 1.56 mg/kg/injection, schedule: Q01DX009 (ip), vehicle: saline with Tween-80): 10 of 10
- survivor count (dose: 3.13 mg/kg/injection, schedule: Q01DX009 (ip), vehicle: saline with Tween-80): 10 of 10

SMILES: C/C=C/C=C\C=C/C(O)CC(OP(=O)(O)O)C(C)(O)/C=C/C1CC=CC(=O)O1 (configuration not stated)
- T/C (dose: 1.5 mg/kg/injection, schedule: Q01DX009 (ip), vehicle: water): 125, 130, 138 % of control
- T/C (dose: 3.0 mg/kg/injection, schedule: Q01DX009 (ip), vehicle: water): 125, 135, 146 % of control
- survivor count (dose: 6.0 mg/kg/injection, schedule: Q01DX009 (ip), vehicle: water): 10 of 10
- survivor count (dose: 12.0 mg/kg/injection, schedule: Q01DX009 (ip), vehicle: water): 6 of 10 and 9 of 10

SMILES: COc1c(C=O)c2c(c(OC)c1OC)-c1ccc(OC)c(=O)cc1[C@@H](NC(C)=O)CC2
- T/C (dose: 3.12 mg/kg/injection, schedule: Q01DX009 (ip), vehicle: Klucel (hydroxypropylcellulose) (HPC)): 132 % of control
- T/C [9]: 126 % of control
- survivor count [9]: 8 of 10
- survivor count (dose: 12.5 mg/kg/injection, schedule: Q01DX009 (ip), vehicle: Klucel (hydroxypropylcellulose) (HPC)): 6 of 10
- survivor count [10]: 3 of 10 and 5 of 10

SMILES: CS(=O)(=O)OCCN(CCOS(C)(=O)=O)c1ccc(C=Nc2ccc(-c3csc(COc4ccccc4)n3)cc2)cc1
- T/C [10]: 128 % of control
- T/C [11]: 139 % of control
- survivor count (dose: 200.0 mg/kg/injection, schedule: Q01DX009 (ip), vehicle: Klucel (hydroxypropylcellulose) (HPC)): 10 of 10
- survivor count (dose: 400.0 mg/kg/injection, schedule: Q01DX009 (ip), vehicle: Klucel (hydroxypropylcellulose) (HPC)): 10 of 10

SMILES: COc1ccc(CC(N)c2ccccc2)cc1 (configuration not stated)
- survivor count [12]: 0 of 10

SMILES: Clc1ccc(CN2COc3c(ccc4cccnc34)C2)cc1Cl
- survivor count [2]: 10 of 10
- survivor count [3]: 7 of 10
- survivor count [4]: 8 of 10

SMILES: COC(=O)C12OCC34C(CC5C(C)=CC(=O)C(O)C5(C)C3C(O)C1O)OC(=O)C(OC(=O)CC(C)C)C24 (configuration not stated)
- T/C (dose: 0.25 mg/kg/injection, schedule: Q01DX009 (ip), vehicle: saline + alcohol): 125 % of control
- T/C [5]: 130 % of control
- T/C [6]: 142 % of control
- survivor count [7]: 6 of 9
- T/C [8]: 136 % of control [8 of 10 alive]
- survivor count [8]: 0 of 9

SMILES: O=Cc1ccccc1
- survivor count (dose: 50.0 mg/kg/injection, schedule: Q01DX009 (oral), vehicle: Klucel (hydroxypropylcellulose) (HPC)): 10 of 10
- survivor count [11]: 10 of 10
- survivor count (dose: 100.0 mg/kg/injection, schedule: Q01DX009 (oral), vehicle: Klucel (hydroxypropylcellulose) (HPC)): 10 of 10
- survivor count (dose: 200.0 mg/kg/injection, schedule: Q01DX009 (oral), vehicle: Klucel (hydroxypropylcellulose) (HPC)): 7 of 10
- survivor count [4]: 10 of 10
- survivor count (dose: 400.0 mg/kg/injection, schedule: Q01DX009 (oral), vehicle: Klucel (hydroxypropylcellulose) (HPC)): 9 of 10
- survivor count (dose: 800.0 mg/kg/injection, schedule: Q01DX009 (ip), vehicle: Klucel (hydroxypropylcellulose) (HPC)): 0 of 10
- survivor count (dose: 800.0 mg/kg/injection, schedule: Q01DX009 (oral), vehicle: Klucel (hydroxypropylcellulose) (HPC)): 7 of 10 and 8 of 10
- survivor count (dose: 1600.0 mg/kg/injection, schedule: Q01DX009 (oral), vehicle: Klucel (hydroxypropylcellulose) (HPC)): 0 of 10 and 1 of 10
- survivor count (dose: 3200.0 mg/kg/injection, schedule: Q01DX009 (oral), vehicle: Klucel (hydroxypropylcellulose) (HPC)): 0 of 10

SMILES: CC[C@@H](C)[C@H]([C@H](CC(=O)N1CCC[C@@H]1[C@@H](OC)[C@H](C)C(=O)N[C@H](Cc1ccccc1)c1nccs1)OC)N(C)C(=O)[C@H](NC(=O)[C@@H](C(C)C)N(C)C)C(C)C
- T/C (dose: 1.44 micrograms/kg/injection, schedule: Q01DX009 (ip), vehicle: saline + alcohol): 142 % of control

SMILES: CN(CCN(C)C(=O)CCOS(C)(=O)=O)C(=O)CCOS(C)(=O)=O
- T/C (dose: 25.0 mg/kg/injection, schedule: Q01DX009 (ip), vehicle: saline): 132 % of control
- survivor count [12]: 10 of 10
- survivor count (dose: 400.0 mg/kg/injection, schedule: Q01DX009 (ip), vehicle: saline): 10 of 10

SMILES: CC(=O)/C=C\c1ccc(Cl)cc1
- survivor count (dose: 100.0 mg/kg/injection, schedule: Q01DX009 (ip), vehicle: saline): 4 of 10
